{"source": "PubChem BioAssay AID1259425, University of Nebraska Medical Center, 2018", "aim": "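Seek colon cancer weak points whose silencing resembles KSR1 loss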 (primary screen)", "cell system": "HCT116 human colon cancer cells", "reagent": "siRNA pool against human genes, 50 nM siRNA", "measurement": "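mRNA of six signature genes measured together by branched-DNA assay after 50 nM siRNA pool, blank removed, divided by geometric mean of two housekeeping genes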", "scale": "BNIP3L mRNA: higher = more BNIP3L transcript after knockdown; NDRG1 mRNA: higher = more NDRG1 transcript after knockdown", "note": "The whole screen tested about 14,000 reagents; shown is an unselected part. Not all columns of the deposit are shown. No sequences are given here. Not stated in the record: the time to read-out."}
{"gene": "HDGF", "BNIP3L mRNA, set 1": 0.15, "NDRG1 mRNA, set 1": 0.32}
{"gene": "SRCIN1", "BNIP3L mRNA, set 1": 0.116, "NDRG1 mRNA, set 1": 0.343}
{"gene": "PLCXD1", "BNIP3L mRNA, set 1": 0.125, "NDRG1 mRNA, set 1": 0.329}
{"gene": "SCAPER", "BNIP3L mRNA, set 1": 0.0941, "NDRG1 mRNA, set 1": 0.0833}
{"gene": "GRIK3", "BNIP3L mRNA, set 1": 0.0472, "NDRG1 mRNA, set 1": 0.0838}
{"gene": "OCA2", "BNIP3L mRNA, set 1": 0.0963, "NDRG1 mRNA, set 1": 0.111}
{"gene": "MAP2K1", "BNIP3L mRNA, set 1": 0.227, "NDRG1 mRNA, set 1": 0.127}
{"gene": "PCNA", "BNIP3L mRNA, set 1": 0.197, "NDRG1 mRNA, set 1": 0.205}
{"gene": "PDE5A", "BNIP3L mRNA, set 1": 0.12, "NDRG1 mRNA, set 1": 0.172}
{"gene": "PARP11", "BNIP3L mRNA, set 1": 0.0597, "NDRG1 mRNA, set 1": 0.324}
{"gene": "TCEAL9", "BNIP3L mRNA, set 1": 0.214, "NDRG1 mRNA, set 1": 0.324}
{"gene": "CORO1B", "BNIP3L mRNA, set 1": 0.559, "NDRG1 mRNA, set 1": 2.16}
{"gene": "ZC3H11A", "BNIP3L mRNA, set 1": 0.071, "NDRG1 mRNA, set 1": 0.0492}
{"gene": "TACR2", "BNIP3L mRNA, set 1": 0.182, "NDRG1 mRNA, set 1": 0.356}
{"gene": "ZSWIM6", "BNIP3L mRNA, set 1": 0.14, "NDRG1 mRNA, set 1": 0.0998}
{"gene": "KCNK2", "BNIP3L mRNA, set 1": 0.112, "NDRG1 mRNA, set 1": 0.175}
{"gene": "HNRNPH3", "BNIP3L mRNA, set 1": 0.199, "NDRG1 mRNA, set 1": 0.363}
{"gene": "PNKP", "BNIP3L mRNA, set 1": 0.0909, "NDRG1 mRNA, set 1": 0.159}
{"gene": "UPB1", "BNIP3L mRNA, set 1": 0.105, "NDRG1 mRNA, set 1": 0.24}
{"gene": "CARS2", "BNIP3L mRNA, set 1": 0.178, "NDRG1 mRNA, set 1": 0.152}
{"gene": "SOST", "BNIP3L mRNA, set 1": 0.0445, "NDRG1 mRNA, set 1": 0.174}
{"gene": "MRPL43", "BNIP3L mRNA, set 1": 0.214, "NDRG1 mRNA, set 1": 0.186}
{"gene": "NCOR2", "BNIP3L mRNA, set 1": 0.169, "NDRG1 mRNA, set 1": 0.112}
{"gene": "FAAP100", "BNIP3L mRNA, set 1": 0.199, "NDRG1 mRNA, set 1": 0.172}
{"gene": "OR51B2", "BNIP3L mRNA, set 1": 0.357, "NDRG1 mRNA, set 1": 0.444}
{"gene": "PBRM1", "BNIP3L mRNA, set 1": 0.105, "NDRG1 mRNA, set 1": 0.252}
{"gene": "TMEM121B", "BNIP3L mRNA, set 1": 0.0928, "NDRG1 mRNA, set 1": 0.448}
{"gene": "ADNP", "BNIP3L mRNA, set 1": 0.139, "NDRG1 mRNA, set 1": 0.294}
